Some of the results follow.
Legend:
Test in all cases: log2 fold change, soluble protein after heating vs DMSO (PISA); higher = thermal stabilisation; K562 lysate, 10 uM; active = over 0.2 and 3.5 SD of the protein, either way, in both replicates (recomputed)
nilotinib = compound: Cc1cn(-c2cc(NC(=O)c3ccc(C)c(Nc4nccc(-c5cccnc5)n4)c3)cc(C(F)(F)F)c2)cn1 [nilotinib]
Method in brief: (§1)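 Log-two fold change in thermal stability relative to solvent controls is reported from duplicates. For each sample, crude K562 extract from dounce-homogenised pellets in PBS pH 7.4 with 1 mM MgCl2, at 1 mg/mL protein, was treated with 10 μM compound for 30 min. Aliquots heated for 3 min across 48°C-58°C were pooled, brought to 0.5% NP-40 at 4°C and cleared at 21,000xg for 90 min. The supernatant was quantified by TMTpro 16plex LC-MS/MS with channel sums equalised.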

The chains behind the UniProt entries cited, without tags or fusion partners. Where a name states a change or a piece, a line headed by the entry shows the natural chain unless it says otherwise.
UniProt P19484: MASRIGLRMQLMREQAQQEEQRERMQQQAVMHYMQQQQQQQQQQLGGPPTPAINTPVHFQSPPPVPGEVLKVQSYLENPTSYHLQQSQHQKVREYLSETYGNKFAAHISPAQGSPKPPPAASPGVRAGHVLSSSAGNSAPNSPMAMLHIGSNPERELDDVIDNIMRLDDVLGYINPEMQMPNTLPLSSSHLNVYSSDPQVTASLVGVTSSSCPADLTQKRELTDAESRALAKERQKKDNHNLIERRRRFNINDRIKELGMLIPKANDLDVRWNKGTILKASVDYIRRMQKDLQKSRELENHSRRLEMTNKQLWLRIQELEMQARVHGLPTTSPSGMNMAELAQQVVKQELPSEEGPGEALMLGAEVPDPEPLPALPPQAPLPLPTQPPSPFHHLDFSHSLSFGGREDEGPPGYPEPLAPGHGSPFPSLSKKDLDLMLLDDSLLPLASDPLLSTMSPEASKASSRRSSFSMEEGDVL
UniProt P20061: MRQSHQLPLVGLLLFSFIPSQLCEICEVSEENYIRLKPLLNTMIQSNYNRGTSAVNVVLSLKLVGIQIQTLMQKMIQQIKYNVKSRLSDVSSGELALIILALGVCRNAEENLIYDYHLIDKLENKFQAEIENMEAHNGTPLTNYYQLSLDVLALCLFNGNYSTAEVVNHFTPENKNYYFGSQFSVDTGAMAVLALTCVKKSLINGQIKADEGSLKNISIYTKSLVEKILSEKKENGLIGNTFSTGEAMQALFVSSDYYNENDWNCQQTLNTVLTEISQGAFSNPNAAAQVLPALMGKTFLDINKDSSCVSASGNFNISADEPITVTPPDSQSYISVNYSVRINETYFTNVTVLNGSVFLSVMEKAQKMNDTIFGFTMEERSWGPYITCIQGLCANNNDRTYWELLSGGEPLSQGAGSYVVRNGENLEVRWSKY
UniProt Q6NUS6: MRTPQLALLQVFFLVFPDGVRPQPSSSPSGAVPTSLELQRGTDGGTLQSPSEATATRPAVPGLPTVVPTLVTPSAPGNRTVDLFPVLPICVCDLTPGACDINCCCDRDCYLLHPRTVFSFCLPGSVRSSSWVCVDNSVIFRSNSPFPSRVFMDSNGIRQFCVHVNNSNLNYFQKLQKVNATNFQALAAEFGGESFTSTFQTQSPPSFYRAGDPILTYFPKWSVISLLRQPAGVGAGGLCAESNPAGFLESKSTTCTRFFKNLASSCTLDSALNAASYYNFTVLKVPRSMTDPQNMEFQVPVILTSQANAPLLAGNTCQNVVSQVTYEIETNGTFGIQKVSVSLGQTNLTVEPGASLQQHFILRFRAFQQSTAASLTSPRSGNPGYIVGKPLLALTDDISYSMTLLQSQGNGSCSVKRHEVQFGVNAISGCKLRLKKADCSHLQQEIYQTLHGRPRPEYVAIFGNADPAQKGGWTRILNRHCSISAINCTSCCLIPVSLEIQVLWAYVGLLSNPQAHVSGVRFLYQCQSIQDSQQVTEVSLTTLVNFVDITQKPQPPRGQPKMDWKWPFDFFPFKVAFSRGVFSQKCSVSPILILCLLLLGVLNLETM
UniProt Q9BQ70: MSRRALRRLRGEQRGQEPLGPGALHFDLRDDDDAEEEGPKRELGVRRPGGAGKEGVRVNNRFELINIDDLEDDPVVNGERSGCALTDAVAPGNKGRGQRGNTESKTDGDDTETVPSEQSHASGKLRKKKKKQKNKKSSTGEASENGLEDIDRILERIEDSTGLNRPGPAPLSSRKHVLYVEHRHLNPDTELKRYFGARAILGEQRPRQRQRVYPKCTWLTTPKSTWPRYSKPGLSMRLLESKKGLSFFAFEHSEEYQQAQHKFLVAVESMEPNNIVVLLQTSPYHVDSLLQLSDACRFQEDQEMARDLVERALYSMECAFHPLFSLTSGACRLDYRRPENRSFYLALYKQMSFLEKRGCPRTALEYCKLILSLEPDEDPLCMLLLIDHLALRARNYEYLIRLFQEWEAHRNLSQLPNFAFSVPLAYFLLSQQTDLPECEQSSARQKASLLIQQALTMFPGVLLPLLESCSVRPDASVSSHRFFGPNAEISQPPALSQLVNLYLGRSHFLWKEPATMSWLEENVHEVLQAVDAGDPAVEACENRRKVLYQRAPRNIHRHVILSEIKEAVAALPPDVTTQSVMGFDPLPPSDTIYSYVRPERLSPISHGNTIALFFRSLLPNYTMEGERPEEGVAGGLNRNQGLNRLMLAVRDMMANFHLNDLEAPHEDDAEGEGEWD
UniProt P54274: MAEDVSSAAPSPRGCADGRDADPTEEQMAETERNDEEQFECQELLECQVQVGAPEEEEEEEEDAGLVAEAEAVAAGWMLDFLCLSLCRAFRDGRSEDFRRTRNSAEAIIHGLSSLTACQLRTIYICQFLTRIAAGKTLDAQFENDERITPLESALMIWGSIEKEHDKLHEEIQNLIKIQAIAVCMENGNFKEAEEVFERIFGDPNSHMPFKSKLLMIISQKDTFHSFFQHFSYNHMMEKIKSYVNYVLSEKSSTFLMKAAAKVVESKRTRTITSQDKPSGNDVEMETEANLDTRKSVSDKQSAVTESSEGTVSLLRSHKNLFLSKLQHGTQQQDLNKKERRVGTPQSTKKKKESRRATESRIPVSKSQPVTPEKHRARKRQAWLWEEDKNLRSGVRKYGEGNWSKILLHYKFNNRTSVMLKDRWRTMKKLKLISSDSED
UniProt Q13569: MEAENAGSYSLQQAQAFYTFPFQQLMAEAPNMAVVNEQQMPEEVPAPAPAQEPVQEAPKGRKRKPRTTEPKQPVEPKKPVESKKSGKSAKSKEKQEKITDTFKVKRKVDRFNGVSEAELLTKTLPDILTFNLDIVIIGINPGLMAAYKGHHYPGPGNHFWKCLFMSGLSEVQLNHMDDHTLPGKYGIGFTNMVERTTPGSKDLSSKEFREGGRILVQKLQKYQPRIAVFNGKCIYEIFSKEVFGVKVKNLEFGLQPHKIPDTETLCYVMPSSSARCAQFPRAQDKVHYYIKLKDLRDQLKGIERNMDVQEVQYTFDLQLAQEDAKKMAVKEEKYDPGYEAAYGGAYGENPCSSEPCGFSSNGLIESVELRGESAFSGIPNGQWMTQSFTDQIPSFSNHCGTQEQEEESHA
UniProt P42680: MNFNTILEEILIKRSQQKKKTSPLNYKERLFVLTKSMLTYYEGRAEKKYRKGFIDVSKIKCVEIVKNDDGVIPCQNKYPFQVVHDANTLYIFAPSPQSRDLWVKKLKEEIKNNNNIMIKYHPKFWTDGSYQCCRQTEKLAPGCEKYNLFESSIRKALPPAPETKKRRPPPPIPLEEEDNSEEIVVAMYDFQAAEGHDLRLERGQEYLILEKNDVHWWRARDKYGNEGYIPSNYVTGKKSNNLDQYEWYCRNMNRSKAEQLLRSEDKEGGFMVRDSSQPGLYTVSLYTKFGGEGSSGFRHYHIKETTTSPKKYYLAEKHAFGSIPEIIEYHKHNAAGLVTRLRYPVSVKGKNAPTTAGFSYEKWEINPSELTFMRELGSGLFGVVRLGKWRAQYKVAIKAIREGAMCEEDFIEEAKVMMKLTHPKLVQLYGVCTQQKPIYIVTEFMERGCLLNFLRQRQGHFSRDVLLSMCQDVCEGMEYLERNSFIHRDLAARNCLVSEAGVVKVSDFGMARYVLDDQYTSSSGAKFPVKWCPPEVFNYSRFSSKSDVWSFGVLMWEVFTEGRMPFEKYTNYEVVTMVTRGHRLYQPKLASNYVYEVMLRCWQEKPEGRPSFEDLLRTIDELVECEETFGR
UniProt Q9UHQ7: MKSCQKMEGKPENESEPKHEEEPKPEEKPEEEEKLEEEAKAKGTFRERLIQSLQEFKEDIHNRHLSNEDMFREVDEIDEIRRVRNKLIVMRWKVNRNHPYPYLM
UniProt O95455: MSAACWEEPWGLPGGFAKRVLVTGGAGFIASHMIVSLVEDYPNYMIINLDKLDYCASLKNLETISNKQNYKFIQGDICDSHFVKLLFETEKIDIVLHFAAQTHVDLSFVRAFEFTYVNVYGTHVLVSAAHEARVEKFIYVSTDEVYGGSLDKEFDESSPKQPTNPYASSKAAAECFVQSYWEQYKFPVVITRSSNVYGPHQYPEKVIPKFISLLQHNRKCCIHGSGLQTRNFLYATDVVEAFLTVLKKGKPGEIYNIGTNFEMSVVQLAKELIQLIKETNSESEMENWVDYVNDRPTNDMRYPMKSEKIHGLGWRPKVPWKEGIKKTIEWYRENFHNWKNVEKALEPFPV
UniProt Q9UL54: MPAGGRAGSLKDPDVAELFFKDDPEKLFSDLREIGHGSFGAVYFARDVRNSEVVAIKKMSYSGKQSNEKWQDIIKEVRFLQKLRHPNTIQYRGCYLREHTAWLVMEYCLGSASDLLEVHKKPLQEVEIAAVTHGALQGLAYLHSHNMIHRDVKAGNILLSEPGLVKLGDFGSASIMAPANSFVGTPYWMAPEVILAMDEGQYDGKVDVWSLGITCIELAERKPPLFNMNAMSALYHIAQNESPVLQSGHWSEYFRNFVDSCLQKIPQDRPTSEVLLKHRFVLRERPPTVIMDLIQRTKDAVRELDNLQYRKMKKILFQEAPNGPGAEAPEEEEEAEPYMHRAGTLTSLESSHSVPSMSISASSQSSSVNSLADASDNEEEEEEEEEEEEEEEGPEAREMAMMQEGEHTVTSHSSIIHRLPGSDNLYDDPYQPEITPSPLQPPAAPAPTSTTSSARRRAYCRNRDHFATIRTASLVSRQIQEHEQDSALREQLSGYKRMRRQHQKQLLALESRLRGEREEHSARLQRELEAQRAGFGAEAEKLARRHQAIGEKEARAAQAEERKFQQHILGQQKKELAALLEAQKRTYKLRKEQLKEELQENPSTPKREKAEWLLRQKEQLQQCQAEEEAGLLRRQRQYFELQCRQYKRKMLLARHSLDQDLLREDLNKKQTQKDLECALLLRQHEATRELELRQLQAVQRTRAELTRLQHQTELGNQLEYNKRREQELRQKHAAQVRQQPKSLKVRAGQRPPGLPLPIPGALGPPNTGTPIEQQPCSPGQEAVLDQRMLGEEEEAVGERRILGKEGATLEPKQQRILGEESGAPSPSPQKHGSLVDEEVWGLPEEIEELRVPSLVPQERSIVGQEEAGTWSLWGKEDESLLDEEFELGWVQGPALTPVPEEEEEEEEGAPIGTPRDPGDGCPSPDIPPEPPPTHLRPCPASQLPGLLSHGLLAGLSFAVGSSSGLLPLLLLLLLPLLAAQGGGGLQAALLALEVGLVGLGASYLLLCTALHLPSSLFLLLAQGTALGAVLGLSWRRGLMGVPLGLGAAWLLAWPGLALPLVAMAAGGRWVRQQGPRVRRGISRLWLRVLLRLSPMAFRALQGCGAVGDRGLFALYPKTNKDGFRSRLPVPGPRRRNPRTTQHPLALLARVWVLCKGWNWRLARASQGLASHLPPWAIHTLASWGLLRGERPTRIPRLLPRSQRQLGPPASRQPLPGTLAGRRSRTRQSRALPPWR
UniProt Q5VWP2: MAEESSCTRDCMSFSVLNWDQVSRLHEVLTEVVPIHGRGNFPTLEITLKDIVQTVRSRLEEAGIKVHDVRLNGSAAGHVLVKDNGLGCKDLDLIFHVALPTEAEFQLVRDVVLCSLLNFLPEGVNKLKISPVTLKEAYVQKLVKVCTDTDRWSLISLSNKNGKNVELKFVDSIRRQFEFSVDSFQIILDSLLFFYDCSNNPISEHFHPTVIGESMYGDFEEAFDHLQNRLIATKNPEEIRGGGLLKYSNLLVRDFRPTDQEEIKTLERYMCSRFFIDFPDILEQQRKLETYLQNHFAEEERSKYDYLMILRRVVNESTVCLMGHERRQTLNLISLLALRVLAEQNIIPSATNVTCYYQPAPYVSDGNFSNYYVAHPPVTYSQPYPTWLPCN
UniProt Q01664: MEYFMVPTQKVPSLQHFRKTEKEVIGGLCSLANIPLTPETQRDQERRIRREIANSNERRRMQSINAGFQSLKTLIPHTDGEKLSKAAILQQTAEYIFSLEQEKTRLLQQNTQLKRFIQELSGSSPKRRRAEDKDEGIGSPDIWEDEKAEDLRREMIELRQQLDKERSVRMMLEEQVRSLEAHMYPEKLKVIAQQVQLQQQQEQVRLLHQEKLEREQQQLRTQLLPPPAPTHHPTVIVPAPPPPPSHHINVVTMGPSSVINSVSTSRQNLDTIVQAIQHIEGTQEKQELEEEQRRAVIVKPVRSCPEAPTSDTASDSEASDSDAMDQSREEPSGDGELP
UniProt Q5QJ74: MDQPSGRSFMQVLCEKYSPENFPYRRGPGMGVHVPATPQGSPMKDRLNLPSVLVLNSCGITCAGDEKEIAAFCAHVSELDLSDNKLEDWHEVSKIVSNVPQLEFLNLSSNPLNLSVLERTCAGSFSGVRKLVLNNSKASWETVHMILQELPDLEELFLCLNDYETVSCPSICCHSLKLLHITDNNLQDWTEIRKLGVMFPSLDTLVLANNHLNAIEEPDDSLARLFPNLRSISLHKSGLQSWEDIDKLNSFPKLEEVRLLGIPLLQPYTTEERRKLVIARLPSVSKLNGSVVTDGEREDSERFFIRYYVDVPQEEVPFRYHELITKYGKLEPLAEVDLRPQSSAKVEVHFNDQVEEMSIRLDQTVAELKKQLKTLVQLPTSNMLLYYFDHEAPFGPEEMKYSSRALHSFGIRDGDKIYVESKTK

[1] = compound: Cc1nc(Nc2n[nH]c3c2CN(C(=O)N[C@H](CN(C)C)c2ccccc2)C3(C)C)c2sccc2n1
Method in brief: as §1

[2] = compound: Cc1ncc(-c2ccnc(Nc3ccc(S(C)(=O)=O)cc3)n2)n1C(C)C
Method in brief: as §1

quisinostat = compound: Cn1cc(CNCC2CCN(c3ncc(C(=O)NO)cn3)CC2)c2ccccc21 [quisinostat]
Method in brief: as §1

tipifarnib = compound: Cn1cncc1[C@@](N)(c1ccc(Cl)cc1)c1ccc2c(c1)c(-c1cccc(Cl)c1)cc(=O)n2C [tipifarnib]
Method in brief: as §1

[3] = compound: NC(=O)Nc1cc(-c2cccc(F)c2)sc1C(=O)N[C@H]1CCCNC1
Method in brief: as §1

[4] = compound: NCC(=O)Nc1ccc(-n2nc(C(F)(F)F)cc2-c2ccc3c(ccc4ccccc43)c2)cc1
Method in brief: as §1

[5] = compound: O=C1NC(=O)C(c2cnc3ccccn23)=C1c1cn2c3c(cc(F)cc13)CN(C(=O)N1CCCCC1)CC2
Method in brief: as §1

[6] = compound: NC(=O)c1cnc(N[C@@H]2CCCC[C@@H]2N)nc1Nc1cccc(-n2nccn2)c1
Method in brief: as §1

[7] = compound: NC1(c2ccc(-c3nc4ccn5c(=O)[nH]nc5c4cc3-c3ccccc3)cc2)CCC1
Method in brief: as §1

vorinostat = compound: O=C(CCCCCCC(=O)Nc1ccccc1)NO [vorinostat]
Method in brief: as §1

silmitasertib = compound: O=C(O)c1ccc2c(c1)nc(Nc1cccc(Cl)c1)c1ccncc12 [silmitasertib]
Method in brief: as §1

entospletinib = compound: c1cn2cc(-c3ccc4cn[nH]c4c3)nc(Nc3ccc(N4CCOCC4)cc3)c2n1 [entospletinib]
Method in brief: as §1

dasatinib = compound: Cc1nc(Nc2ncc(C(=O)Nc3c(C)cccc3Cl)s2)cc(N2CCN(CCO)CC2)n1 [dasatinib]
Method in brief: as §1

[8] = compound: Cn1cc(-c2ccc3c(c2)CCN3C(=O)Cc2cccc(C(F)(F)F)c2)c2c(N)ncnc21
Method in brief: as §1

Row | Target | log2 fold change (nilotinib) | log2 fold change [1] | log2 fold change [2] | log2 fold change (quisinostat) | log2 fold change (tipifarnib) | log2 fold change [3] | log2 fold change [4] | log2 fold change [5] | log2 fold change [6] | log2 fold change [7] | log2 fold change (vorinostat) | log2 fold change (silmitasertib) | log2 fold change (entospletinib) | log2 fold change (dasatinib) | log2 fold change [8]
1 | TFEB (UniProt P19484) | inactive: -0.161 | inactive: 0.048 | inactive: -0.026 | inactive: -0.111 | inactive: 0.11 | inactive: 0.058 | inactive: 0.201 | inactive: 0.036 |  |  |  |  |  |  | 
2 | TFPI (UniProt P10646) | inactive: -0.076 | inactive: 0.04 | inactive: -0.035 | inactive: -0.088 | inactive: -0.025 | inactive: -0.067 | inactive: 0.067 | inactive: -0.063 | inactive: 0.035 | inactive: 0.02 | inactive: 0.106 | inactive: 0.01 | inactive: -0.057 |  | 
3 | TCEANC2 (UniProt Q96MN5) | inactive: -0.042 | inactive: -0.056 | inactive: 0.212 |  | inactive: 0.087 |  | inactive: -0.067 |  |  | inactive: 0.064 | inactive: -0.122 | inactive: 0.056 | inactive: -0.068 | inactive: 0.015 | inactive: 0.028
4 | TCHP (UniProt Q9BT92) | inactive: 0.097 | inactive: -0.002 | inactive: 0.03 | inactive: -0.15 | inactive: 0.111 | inactive: 0.058 | inactive: 0.089 | inactive: -0.01 |  | inactive: 0.073 | inactive: -0.112 | inactive: 0.014 | inactive: -0.073 | inactive: 0.01 | inactive: 0.198
5 | TCN1 (UniProt P20061) | inactive: 0.046 | inactive: 0.022 | inactive: 0.058 | inactive: 0.183 | inactive: -0.027 | inactive: -0.007 |  | inactive: -0.05 |  | inactive: 0.168 | inactive: -0.141 | inactive: -0.082 | inactive: -0.17 |  | 
6 | TCTN3 (UniProt Q6NUS6) | inactive: 0.014 | inactive: -0.025 | inactive: 0.027 | inactive: 0.008 | inactive: -0.003 | inactive: 0 |  | inactive: 0.029 |  |  |  |  |  |  | 
7 | TCF25 (UniProt Q9BQ70) | inactive: -0.066 | inactive: -0.122 | inactive: -0.096 | inactive: -0.052 | inactive: 0.009 | inactive: 0.062 | inactive: -0.183 | inactive: -0.051 |  | inactive: -0.093 | inactive: -0.121 | inactive: 0.036 | inactive: -0.048 | inactive: -0.143 | inactive: -0.058
8 | TERF1 (UniProt P54274) | inactive: 0 | inactive: 0.13 | inactive: 0.27 | inactive: -0.063 | inactive: 0.239 | inactive: -0.043 | inactive: -0.124 | inactive: -0.011 |  |  |  |  | inactive: 0.132 |  | 
9 | TDG (UniProt Q13569) | inactive: -0.128 | inactive: 0.006 | inactive: 0.037 | inactive: 0.127 | inactive: 0.012 | inactive: -0.051 | inactive: 0 | inactive: -0.12 |  |  |  |  | inactive: -0.045 | inactive: -0.04 | inactive: 0.044
10 | TAF8, A0A0A0MRR3 |  |  |  |  |  |  |  |  |  |  |  |  |  | inactive: 0.042 | inactive: 0.081
11 | TAF9B (UniProt Q9HBM6) |  |  |  | inactive: 0.004 |  | inactive: 0.024 | inactive: -0.204 | inactive: 0.011 | inactive: 0.143 | inactive: -0.02 | inactive: -0.158 | inactive: -0.025 | inactive: 0.101 | inactive: 0.002 | inactive: -0.023
12 | TEC (UniProt P42680) | inactive: -0.047 | inactive: 0.099 | inactive: 0.019 |  | inactive: 0.116 |  | active: -1.05 |  | inactive: -0.039 |  |  |  | inactive: 0.037 |  | 
13 | TENT2 (UniProt Q6PIY7) |  |  |  |  |  |  |  |  |  |  |  |  |  | inactive: 0.103 | inactive: -0.035
14 | TCEAL9 (UniProt Q9UHQ7) | inactive: 0.01 | inactive: -0.022 | inactive: 0.06 | inactive: 0.049 | inactive: -0.121 | inactive: 0.075 | inactive: -0.095 | inactive: 0.003 |  |  |  |  |  |  | 
15 | TGDS (UniProt O95455) | inactive: -0.083 | inactive: -0.106 | inactive: 0.113 | inactive: -0.014 | inactive: 0.185 | inactive: 0.161 |  | inactive: -0.029 | inactive: -0.012 |  |  |  |  |  | 
16 | TEN1 (UniProt Q86WV5) | inactive: 0.126 | inactive: -0.243 | inactive: 0.216 |  | inactive: -0.075 |  |  |  |  |  |  |  |  |  | 
17 | TAOK2 isoform 2 (UniProt Q9UL54) | inactive: 0.109 | inactive: 0.013 | inactive: -0.01 |  | inactive: 0.031 |  |  |  |  |  |  |  |  |  | 
18 | TASP1 (UniProt Q9H6P5) | inactive: -0.319 | inactive: -0.062 | inactive: 0.077 | inactive: -0.094 | inactive: 0.089 | inactive: 0.046 |  | inactive: 0.029 | inactive: -0.053 | inactive: -0.056 | active: 0.481 | inactive: -0.018 | inactive: 0.21 | inactive: -0.124 | inactive: -0.003
19 | TENT5C (UniProt Q5VWP2) | inactive: 0.005 | inactive: 0.051 | inactive: -0.048 | inactive: -0.144 | inactive: 0.048 | inactive: 0.058 | inactive: 0.005 | inactive: -0.09 | inactive: 0.037 | inactive: -0.012 | inactive: 0.056 | inactive: -0.047 | inactive: 0.046 |  | 
20 | TAX1BP1 isoform 2 (UniProt Q86VP1) | inactive: 0.269 | inactive: 0.198 | inactive: 0.226 |  | inactive: -0.18 |  |  |  |  | inactive: -0.097 | inactive: 0.279 | inactive: 0.099 |  |  | 
21 | TFAP4 (UniProt Q01664) | inactive: 0.18 | inactive: 0.155 | inactive: 0 | inactive: 0.006 | inactive: -0.066 | inactive: -0.036 | inactive: 0.005 | inactive: 0.01 | inactive: -0.218 | inactive: -0.001 | inactive: 0.051 | inactive: -0.196 | inactive: -0.086 |  | 
22 | TBCEL (UniProt Q5QJ74) | inactive: -0.059 | inactive: 0.177 | inactive: -0.087 |  | inactive: -0.385 |  | inactive: 0.08 |  |  | inactive: -0.229 | inactive: -0.055 | inactive: 0.158 |  | inactive: 0.101 | inactive: 0.012
23 | TEDC1 (UniProt Q86SX3) | inactive: 0.015 | inactive: -0.016 | inactive: -0.038 | inactive: 0.161 | inactive: -0.049 | inactive: -0.074 |  | inactive: -0.012 | inactive: 0.104 | inactive: -0.022 | active: -0.356 | inactive: 0.068 | inactive: -0.032 | inactive: 0.087 | inactive: 0.05

Some of the entries so far, as a markdown table:

| Row | Target | log2 fold change (nilotinib) | log2 fold change [1] | log2 fold change [2] | log2 fold change (quisinostat) | log2 fold change (tipifarnib) | log2 fold change [3] | log2 fold change [4] | log2 fold change [5] | log2 fold change [6] | log2 fold change [7] | log2 fold change (vorinostat) | log2 fold change (silmitasertib) | log2 fold change (entospletinib) | log2 fold change (dasatinib) | log2 fold change [8] |
| --- | --- | --- | --- | --- | --- | --- | --- | --- | --- | --- | --- | --- | --- | --- | --- | --- |
| 19 | TENT5C (UniProt Q5VWP2) | inactive: 0.005 | inactive: 0.051 | inactive: -0.048 | inactive: -0.144 | inactive: 0.048 | inactive: 0.058 | inactive: 0.005 | inactive: -0.09 | inactive: 0.037 | inactive: -0.012 | inactive: 0.056 | inactive: -0.047 | inactive: 0.046 |  |  |
| 20 | TAX1BP1 isoform 2 (UniProt Q86VP1) | inactive: 0.269 | inactive: 0.198 | inactive: 0.226 |  | inactive: -0.18 |  |  |  |  | inactive: -0.097 | inactive: 0.279 | inactive: 0.099 |  |  |  |

Reference: the supplement of paper PMC10849652
